# Values of other authors as cited in patent publication US12379360B2, “Detection system for an electronic nose allowing a physicochemical classification of odours and electronic nose comprising such a system” (COMMISSARIAT À L'ÉNERGIE ATOMIQUE ET AUX ÉNERGIES …, priority 2019, dated 2025).
# Some entries share one result that the patent states for a list of compounds.
# Settings: scale of R. M. Sweet and D. Eisenberg, reference [4]
row,SMILES,hydrophobicity index
1,CC[C@H](C)[C@H](N)C(=O)O [isoleucine],≥ 1.06
2,N[C@@H](Cc1ccccc1)C(=O)O [phenylalanine],≥ 1.06
3,CC(C)[C@H](N)C(=O)O [valine],≥ 1.06
